{"source": "patent US20130116146A1", "about": "(University of California, published 2013)", "binders": {"B1": {"name": "…, H2AV_DROME lysine site 74, trimethylated (peptide)", "peptide": "ELAGNASKD", "modifications": "trimethyl-lysine at lysine site 74 (8th residue of the peptide)"}, "B2": {"name": "…, H2B_DROME lysine site 82, trimethylated (peptide)", "peptide": "SRLAHYNKR", "modifications": "trimethyl-lysine at lysine site 82 (8th residue of the peptide)"}, "B3": {"name": "…, H4_DROME lysine site 77, trimethylated (peptide)", "peptide": "VTYTEHAKR", "modifications": "trimethyl-lysine at lysine site 77 (8th residue of the peptide)"}, "B4": {"name": "…, H3_DROME lysine site 36, trimethylated (peptide)", "peptide": "APATGGVKK", "modifications": "trimethyl-lysine at lysine site 36 (8th residue of the peptide)"}, "B5": {"name": "…, H3_DROME lysine site 115, trimethylated (peptide)", "peptide": "NLCAIHAKR", "modifications": "trimethyl-lysine at lysine site 115 (8th residue of the peptide)"}, "B6": {"name": "…, H2B_DROME lysine site 54, trimethylated (peptide)", "peptide": "PDTGISSKA", "modifications": "trimethyl-lysine at lysine site 54 (8th residue of the peptide)"}, "B7": {"name": "…, H4_DROME lysine site 12, trimethylated (peptide)", "peptide": "KGGKGLGKG", "modifications": "trimethyl-lysine at lysine site 12 (8th residue of the peptide)"}, "B8": {"name": "…, H2AV_DROME lysine site 13, trimethylated (peptide)", "peptide": "GKDSGKAKA", "modifications": "trimethyl-lysine at lysine site 13 (8th residue of the peptide)"}, "B9": {"name": "…, H2A_DROME lysine site 74, trimethylated (peptide)", "peptide": "NAARDNKKT", "modifications": "trimethyl-lysine at lysine site 74 (8th residue of the peptide)"}, "B10": {"name": "…, H3_DROME lysine site 79, trimethylated (peptide)", "peptide": "REIAQDFKT", "modifications": "trimethyl-lysine at lysine site 79 (8th residue of the peptide)"}, "B11": {"name": "…, H2AV_DROME lysine site 7, trimethylated (peptide)", "peptide": "MAGGKAGKD", "modifications": "trimethyl-lysine at lysine site 7 (8th residue of the peptide)"}, "B12": {"name": "…, H2AV_DROME lysine site 120, trimethylated (peptide)", "peptide": "IHKSLIGKK", "modifications": "trimethyl-lysine at lysine site 120 (8th residue of the peptide)"}, "B13": {"name": "…, H4_DROME lysine site 31, trimethylated (peptide)", "peptide": "DNIQGITKP", "modifications": "trimethyl-lysine at lysine site 31 (8th residue of the peptide)"}, "B14": {"name": "…, H4_DROME lysine site 16, trimethylated (peptide)", "peptide": "GLGKGGAKR", "modifications": "trimethyl-lysine at lysine site 16 (8th residue of the peptide)"}, "B15": {"name": "…, H2B_DROME lysine site 43, trimethylated (peptide)", "peptide": "IYIYKVLKQ", "modifications": "trimethyl-lysine at lysine site 43 (8th residue of the peptide)"}, "B16": {"name": "…, H3_DROME lysine site 37, trimethylated (peptide)", "peptide": "PATGGVKKP", "modifications": "trimethyl-lysine at lysine site 37 (8th residue of the peptide)"}, "B17": {"name": "…, H2A_DROME lysine site 94, trimethylated (peptide)", "peptide": "RNDEELNKL", "modifications": "trimethyl-lysine at lysine site 94 (8th residue of the peptide)"}, "B18": {"name": "…, H4_DROME lysine site 44, trimethylated (peptide)", "peptide": "LARRGGVKR", "modifications": "trimethyl-lysine at lysine site 44 (8th residue of the peptide)"}, "B19": {"name": "…, H2AV_DROME lysine site 77, trimethylated (peptide)", "peptide": "GNASKDLKV", "modifications": "trimethyl-lysine at lysine site 77 (8th residue of the peptide)"}, "B20": {"name": "…, H3_DROME lysine site 14, trimethylated (peptide)", "peptide": "ARKSTGGKA", "modifications": "trimethyl-lysine at lysine site 14 (8th residue of the peptide)"}, "B21": {"name": "…, H2A_DROME lysine site 118, trimethylated (peptide)", "peptide": "QAVLLPKKT", "modifications": "trimethyl-lysine at lysine site 118 (8th residue of the peptide)"}, "B22": {"name": "…, H2AV_DROME lysine site 115, trimethylated (peptide)", "peptide": "GVIPHIHKS", "modifications": "trimethyl-lysine at lysine site 115 (8th residue of the peptide)"}, "B23": {"name": "…, H3_DROME lysine site 122, trimethylated (peptide)", "peptide": "KRVTIMPKD", "modifications": "trimethyl-lysine at lysine site 122 (8th residue of the peptide)"}, "B24": {"name": "…, H33_DROME lysine site 37, trimethylated (peptide)", "peptide": "PSTGGVKKP", "modifications": "trimethyl-lysine at lysine site 37 (8th residue of the peptide)"}, "B25": {"name": "…, H3_DROME lysine site 64, trimethylated (peptide)", "peptide": "STELLIRKL", "modifications": "trimethyl-lysine at lysine site 64 (8th residue of the peptide)"}, "B26": {"name": "…, H3_DROME lysine site 18, trimethylated (peptide)", "peptide": "TGGKAPRKQ", "modifications": "trimethyl-lysine at lysine site 18 (8th residue of the peptide)"}, "B27": {"name": "…, H2A_DROME lysine site 73, trimethylated (peptide)", "peptide": "GNAARDNKK", "modifications": "trimethyl-lysine at lysine site 73 (8th residue of the peptide)"}, "B28": {"name": "…, H33_DROME lysine site 36, trimethylated (peptide)", "peptide": "APSTGGVKK", "modifications": "trimethyl-lysine at lysine site 36 (8th residue of the peptide)"}, "B29": {"name": "…, H2B_DROME lysine site 113, trimethylated (peptide)", "peptide": "HAVSEGTKA", "modifications": "trimethyl-lysine at lysine site 113 (8th residue of the peptide)"}, "B30": {"name": "…, H2AV_DROME lysine site 101, trimethylated (peptide)", "peptide": "EELDSLIKA", "modifications": "trimethyl-lysine at lysine site 101 (8th residue of the peptide)"}, "B31": {"name": "…, H2B_DROME lysine site 105, trimethylated (peptide)", "peptide": "LLPGELAKH", "modifications": "trimethyl-lysine at lysine site 105 (8th residue of the peptide)"}, "B32": {"name": "…, H4_DROME lysine site 79, trimethylated (peptide)", "peptide": "YTEHAKRKT", "modifications": "trimethyl-lysine at lysine site 79 (8th residue of the peptide)"}, "B33": {"name": "…, H2AV_DROME lysine site 11, trimethylated (peptide)", "peptide": "KAGKDSGKA", "modifications": "trimethyl-lysine at lysine site 11 (8th residue of the peptide)"}, "B34": {"name": "…, H4_DROME lysine site 59, trimethylated (peptide)", "peptide": "EETRGVLKV", "modifications": "trimethyl-lysine at lysine site 59 (8th residue of the peptide)"}}, "note": "These are yes or no findings as the source states them, for the method shown. Where a sequence is shown, tags or fusion partners need not be part of it.", "data": [{"target": "T1, Polycomb protein chromodomain (a.a. 1-90), GST-tagged fusion protein (Drosophila melanogaster) (UniProt P26017)", "T1 sequence (looked up)": "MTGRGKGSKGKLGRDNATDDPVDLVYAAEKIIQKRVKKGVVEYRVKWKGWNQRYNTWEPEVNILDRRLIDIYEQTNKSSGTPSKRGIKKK", "assay": "peptide microarray, GST-Polycomb chromodomain overlaid on trimethylated peptides printed in triplicate", "values": [{"binder": "B1", "binding": "no binding (tested: p-value cutoff of 0.001)"}, {"binder": "B2", "binding": "no binding (tested: p-value cutoff of 0.001)"}, {"binder": "B3", "binding": "no binding (tested: p-value cutoff of 0.001)"}, {"binder": "B4", "binding": "no binding (tested: p-value cutoff of 0.001)"}, {"binder": "B5", "binding": "no binding (tested: p-value cutoff of 0.001)"}, {"binder": "B6", "binding": "no binding (tested: p-value cutoff of 0.001)"}, {"binder": "B7", "binding": "no binding (tested: p-value cutoff of 0.001)"}, {"binder": "B8", "binding": "no binding (tested: p-value cutoff of 0.001)"}, {"binder": "B9", "binding": "no binding (tested: p-value cutoff of 0.001)"}, {"binder": "B10", "binding": "no binding (tested: p-value cutoff of 0.001)"}, {"binder": "B11", "binding": "no binding (tested: p-value cutoff of 0.001)"}, {"binder": "B12", "binding": "no binding (tested: p-value cutoff of 0.001)"}, {"binder": "B13", "binding": "no binding (tested: p-value cutoff of 0.001)"}, {"binder": "B14", "binding": "no binding (tested: p-value cutoff of 0.001)"}, {"binder": "B15", "binding": "no binding (tested: p-value cutoff of 0.001)"}, {"binder": "B16", "binding": "no binding (tested: p-value cutoff of 0.001)"}, {"binder": "B17", "binding": "no binding (tested: p-value cutoff of 0.001)"}, {"binder": "B18", "binding": "no binding (tested: p-value cutoff of 0.001)"}, {"binder": "B19", "binding": "no binding (tested: p-value cutoff of 0.001)"}, {"binder": "B20", "binding": "no binding (tested: p-value cutoff of 0.001)"}, {"binder": "B21", "binding": "no binding (tested: p-value cutoff of 0.001)"}, {"binder": "B22", "binding": "no binding (tested: p-value cutoff of 0.001)"}, {"binder": "B23", "binding": "no binding (tested: p-value cutoff of 0.001)"}, {"binder": "B24", "binding": "no binding (tested: p-value cutoff of 0.001)"}, {"binder": "B25", "binding": "no binding (tested: p-value cutoff of 0.001)"}, {"binder": "B26", "binding": "no binding (tested: p-value cutoff of 0.001)"}, {"binder": "B27", "binding": "no binding (tested: p-value cutoff of 0.001)"}, {"binder": "B28", "binding": "no binding (tested: p-value cutoff of 0.001)"}, {"binder": "B29", "binding": "no binding (tested: p-value cutoff of 0.001)"}, {"binder": "B30", "binding": "no binding (tested: p-value cutoff of 0.001)"}, {"binder": "B31", "binding": "no binding (tested: p-value cutoff of 0.001)"}, {"binder": "B32", "binding": "no binding (tested: p-value cutoff of 0.001)"}, {"binder": "B33", "binding": "no binding (tested: p-value cutoff of 0.001)"}, {"binder": "B34", "binding": "no binding (tested: p-value cutoff of 0.001)"}]}]}
